Values of other authors as cited in US20100029734A1, “METHODS FOR BREAST CANCER SCREENING AND TREATMENT” (Ore Pharmaceuticals Inc., priority 2008, published 2010).

What was measured:
T47D = settings: read-out: IC50 for antiproliferative effect; estrogen-stimulated T47D cells; cited from earlier work
MCF-7 = settings: read-out: IC50 for antiproliferative effect; estrogen-stimulated MCF-7 cells; cited from earlier work

## CC/C(=C(\c1ccccc1)c1ccc(OCCN(C)C)cc1)c1ccccc1 [tamoxifen]
T47D
  IC50: 11.8 nM
MCF-7
  IC50: 45.5 nM
